No constants are given. Whether binding was seen depends on the method and setting. Binding seen in cells or lysates may run through a third protein. A yes stands for co-enrichment or nearness to the bait. Other partners may have been found.

Sequences of proteins named here, by UniProt entry; tags and fusion partners are left off.
UniProt Q91YL2: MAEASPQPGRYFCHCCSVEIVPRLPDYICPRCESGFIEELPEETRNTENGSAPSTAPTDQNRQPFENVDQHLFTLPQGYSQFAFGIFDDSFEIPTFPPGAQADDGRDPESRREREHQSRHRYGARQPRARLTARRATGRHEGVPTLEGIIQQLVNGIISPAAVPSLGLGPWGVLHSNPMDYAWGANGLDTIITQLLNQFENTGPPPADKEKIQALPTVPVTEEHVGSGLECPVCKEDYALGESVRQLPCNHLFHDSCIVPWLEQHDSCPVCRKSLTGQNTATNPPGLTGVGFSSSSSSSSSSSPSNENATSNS
UniProt Q9Z1R2: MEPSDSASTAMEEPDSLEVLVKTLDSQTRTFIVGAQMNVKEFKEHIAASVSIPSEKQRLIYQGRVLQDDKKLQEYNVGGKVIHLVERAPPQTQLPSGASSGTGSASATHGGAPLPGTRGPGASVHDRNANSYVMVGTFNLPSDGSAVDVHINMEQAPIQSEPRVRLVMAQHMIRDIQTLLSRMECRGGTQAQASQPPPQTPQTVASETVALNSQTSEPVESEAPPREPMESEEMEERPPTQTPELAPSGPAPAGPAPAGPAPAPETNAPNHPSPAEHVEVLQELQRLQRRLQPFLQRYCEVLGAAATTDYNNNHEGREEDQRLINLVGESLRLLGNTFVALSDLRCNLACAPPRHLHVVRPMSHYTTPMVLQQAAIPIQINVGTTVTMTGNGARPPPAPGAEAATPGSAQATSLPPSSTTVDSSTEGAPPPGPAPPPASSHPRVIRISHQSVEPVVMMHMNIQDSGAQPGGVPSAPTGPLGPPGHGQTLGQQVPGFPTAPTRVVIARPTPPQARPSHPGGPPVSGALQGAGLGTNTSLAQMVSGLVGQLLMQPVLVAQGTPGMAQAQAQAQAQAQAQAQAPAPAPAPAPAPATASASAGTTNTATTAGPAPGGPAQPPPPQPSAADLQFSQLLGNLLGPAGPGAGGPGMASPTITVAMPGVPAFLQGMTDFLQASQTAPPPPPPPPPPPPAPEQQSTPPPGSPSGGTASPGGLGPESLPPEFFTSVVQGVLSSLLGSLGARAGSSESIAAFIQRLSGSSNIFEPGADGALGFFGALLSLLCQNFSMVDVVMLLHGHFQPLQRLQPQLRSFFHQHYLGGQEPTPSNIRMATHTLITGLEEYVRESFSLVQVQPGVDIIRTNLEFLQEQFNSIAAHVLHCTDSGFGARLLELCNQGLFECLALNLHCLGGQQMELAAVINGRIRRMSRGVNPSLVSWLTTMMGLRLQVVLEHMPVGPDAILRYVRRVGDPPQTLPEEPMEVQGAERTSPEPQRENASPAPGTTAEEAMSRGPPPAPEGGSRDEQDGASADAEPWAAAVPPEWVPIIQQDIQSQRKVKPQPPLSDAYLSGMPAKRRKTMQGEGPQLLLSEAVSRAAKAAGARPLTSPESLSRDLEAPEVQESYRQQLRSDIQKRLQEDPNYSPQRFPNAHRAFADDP

For the test, the target named is RNF126 (mouse (endogenous in testis)) (UniProt Q91YL2). Briefly: affinity purification with mass spectrometry; RNF126 immunoprecipitated with antibody on protein A/G magnetic beads from mouse testis lysate (25 mM Tris, 150 mM NaCl, 1 mM EDTA, 1% NP40, pH 7.4), 4 °C overnight; Rnf126+/+ compared with Rnf126-/-; eluate to MS.

As for BAG6 (from UniProt Q9Z1R2 1-1154), the binding entry was “binds”.

(Values after PMC12102401.)
